# Measured values as given in EP1283052A1, “Pharmaceutical composition containing caspase-8 and /or caspase-9 useful for overcoming glucocorticoid- and cancer therapy-induced apoptosis of tumours” (Deutsches Krebsforschungszentrum Stiftung des öffentlichen …, priority 2001, dated 2003).
# For at least one compound, name, drawing or mass did not settle the structure.
# Test system: P5 cells
# Experiment: P5 xenografts in nude mice, intratumoural therapy, tumour volume
# Format: in vivo
# Details: DEX 0.28 mg/L in drinking water plus cisplatin; Fig. 7
# Method: P5 cells were injected subcutaneously in nude mice. At a tumour volume of 500 mm^3 therapy was started (day 0) and repeated at day 2 and 12 as indicated by arrows. A total volume of 100 µl in PBS was injected intratumoural containing liposomes and cisplatin (5mg/kg), or liposomes with cisplatin and a mixture of recombinant caspase-8 and -9 proteins (10 U each) and pcDNA3caspase-8 and pcDNA3caspase-9 expression vectors (10 µg each) in the absence (CIS) or presence of DEX (DEX/CIS), (DEX/CIS/CASPASES) in the drinking water (0.28 mg/L). As controls, tumour growth of xenografts from untreated mice (CO) or from mice which received liposomes and empty pcDNA3 expression vector only (CO/Liposomes) was determined. The tumour volume in each animal was measured every second day for a period of 16 days. […]
# • (A) Cell culture. […] The mice were given 0.28 mg/L DEX in drinking water, and the amount of water consumed was monitored. […] The tumour volumes were measured using callipers, and calculated using, as an approximation, the formula for volume of a hemi-ellipsoid: π(width^2 x length)/6. […] Early apoptotic changes were identified by staining of cells with fluoresceinthiocyanate (FITC)-conjugated annexin V and propidium iodide (Becton Dickinson, Heidelberg, Germany) and analysed by flow cytometry (FACScan, Becton Dickinson) as described (Herr et al., EMBO J. 16 (1997), 6200-6208) • (E) Immunohistochemistry. […]
smiles,measurement,value
"C[C@@H]1C[C@H]2[C@@H]3CCC4=CC(=O)C=C[C@]4(C)[C@@]3(F)[C@@H](O)C[C@]2(C)[C@@]1(O)C(=O)CO [DEX, dexamethasone]",growth of cisplatin-treated xenografts,strongly enhanced growth of cisplatin-treated xenografts
